Laboratory results published in patent US20160378912A1, “STRUCTURE-BASED MODELING AND TARGET-SELECTIVITY PREDICTION” (EPIGENETX, LLC, priority 2013, published 2016).

Tested on: HDAC isoforms
Experiment: HDAC inhibition profiled over several HDAC isoforms (experimental)
Format: biochemical, human
Conditions: range of pIC50 over the profiled HDAC isoforms

Compound: O=C(CCCCCCC(=O)Nc1ccccc1)NO [SAHA, octanedioic acid hydroxyamidephenylamide]
- Bioactivity range (ΔpIC50) DpIC50: 2.04
